Measurements: PMC11166204, “Mapping the global interactome of the ARF family reveals spatial organization in cellular signaling pathways” (Journal of Cell Science, 2024)
No constants are given. Whether binding was seen depends on the method and setting. Binding seen in cells or lysates may run through a third protein. These calls come from enrichment with a bait or labelling near it, and not all partners need be listed. For some assays here: No binding means not detected with the bait. For some assays here: Sequences can lack the tags named with a protein. Each block holds one molecule with its values, some of them ahead of it.

Amino acid sequences for entries named in this document (tags omitted). A change or cut given only in a name is not applied to a line headed by its entry.
UniProt P84077: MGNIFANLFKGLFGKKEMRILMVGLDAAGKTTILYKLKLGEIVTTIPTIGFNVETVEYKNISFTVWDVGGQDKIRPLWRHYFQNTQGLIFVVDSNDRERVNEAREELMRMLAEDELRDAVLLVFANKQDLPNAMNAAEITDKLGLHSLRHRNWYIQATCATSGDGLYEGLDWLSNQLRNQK
UniProt Q5H913: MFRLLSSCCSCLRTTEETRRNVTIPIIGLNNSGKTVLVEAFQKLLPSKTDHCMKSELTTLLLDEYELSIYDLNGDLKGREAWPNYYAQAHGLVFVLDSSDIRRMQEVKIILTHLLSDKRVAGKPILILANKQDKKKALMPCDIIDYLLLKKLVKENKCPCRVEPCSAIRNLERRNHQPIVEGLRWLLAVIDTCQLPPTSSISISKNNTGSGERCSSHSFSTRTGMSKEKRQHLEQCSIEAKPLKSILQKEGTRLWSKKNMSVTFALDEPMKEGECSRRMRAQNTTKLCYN
UniProt Q9NVJ2: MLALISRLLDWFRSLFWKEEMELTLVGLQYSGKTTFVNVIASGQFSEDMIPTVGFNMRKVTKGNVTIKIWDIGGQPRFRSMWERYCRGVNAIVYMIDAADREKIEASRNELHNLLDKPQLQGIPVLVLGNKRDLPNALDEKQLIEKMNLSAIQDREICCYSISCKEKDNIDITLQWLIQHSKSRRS
UniProt Q8TB45: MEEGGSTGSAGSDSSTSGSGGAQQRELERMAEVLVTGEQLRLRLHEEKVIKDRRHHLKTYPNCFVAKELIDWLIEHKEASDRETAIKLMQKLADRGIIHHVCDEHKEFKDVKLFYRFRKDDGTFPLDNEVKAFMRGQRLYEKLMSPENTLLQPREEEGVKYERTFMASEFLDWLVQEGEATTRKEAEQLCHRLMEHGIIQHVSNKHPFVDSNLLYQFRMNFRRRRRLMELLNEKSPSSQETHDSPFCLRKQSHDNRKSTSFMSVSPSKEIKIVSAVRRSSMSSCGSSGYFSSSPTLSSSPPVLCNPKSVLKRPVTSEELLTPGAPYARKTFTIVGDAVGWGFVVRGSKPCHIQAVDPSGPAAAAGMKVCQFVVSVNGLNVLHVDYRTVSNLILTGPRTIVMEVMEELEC
UniProt Q7Z3U7: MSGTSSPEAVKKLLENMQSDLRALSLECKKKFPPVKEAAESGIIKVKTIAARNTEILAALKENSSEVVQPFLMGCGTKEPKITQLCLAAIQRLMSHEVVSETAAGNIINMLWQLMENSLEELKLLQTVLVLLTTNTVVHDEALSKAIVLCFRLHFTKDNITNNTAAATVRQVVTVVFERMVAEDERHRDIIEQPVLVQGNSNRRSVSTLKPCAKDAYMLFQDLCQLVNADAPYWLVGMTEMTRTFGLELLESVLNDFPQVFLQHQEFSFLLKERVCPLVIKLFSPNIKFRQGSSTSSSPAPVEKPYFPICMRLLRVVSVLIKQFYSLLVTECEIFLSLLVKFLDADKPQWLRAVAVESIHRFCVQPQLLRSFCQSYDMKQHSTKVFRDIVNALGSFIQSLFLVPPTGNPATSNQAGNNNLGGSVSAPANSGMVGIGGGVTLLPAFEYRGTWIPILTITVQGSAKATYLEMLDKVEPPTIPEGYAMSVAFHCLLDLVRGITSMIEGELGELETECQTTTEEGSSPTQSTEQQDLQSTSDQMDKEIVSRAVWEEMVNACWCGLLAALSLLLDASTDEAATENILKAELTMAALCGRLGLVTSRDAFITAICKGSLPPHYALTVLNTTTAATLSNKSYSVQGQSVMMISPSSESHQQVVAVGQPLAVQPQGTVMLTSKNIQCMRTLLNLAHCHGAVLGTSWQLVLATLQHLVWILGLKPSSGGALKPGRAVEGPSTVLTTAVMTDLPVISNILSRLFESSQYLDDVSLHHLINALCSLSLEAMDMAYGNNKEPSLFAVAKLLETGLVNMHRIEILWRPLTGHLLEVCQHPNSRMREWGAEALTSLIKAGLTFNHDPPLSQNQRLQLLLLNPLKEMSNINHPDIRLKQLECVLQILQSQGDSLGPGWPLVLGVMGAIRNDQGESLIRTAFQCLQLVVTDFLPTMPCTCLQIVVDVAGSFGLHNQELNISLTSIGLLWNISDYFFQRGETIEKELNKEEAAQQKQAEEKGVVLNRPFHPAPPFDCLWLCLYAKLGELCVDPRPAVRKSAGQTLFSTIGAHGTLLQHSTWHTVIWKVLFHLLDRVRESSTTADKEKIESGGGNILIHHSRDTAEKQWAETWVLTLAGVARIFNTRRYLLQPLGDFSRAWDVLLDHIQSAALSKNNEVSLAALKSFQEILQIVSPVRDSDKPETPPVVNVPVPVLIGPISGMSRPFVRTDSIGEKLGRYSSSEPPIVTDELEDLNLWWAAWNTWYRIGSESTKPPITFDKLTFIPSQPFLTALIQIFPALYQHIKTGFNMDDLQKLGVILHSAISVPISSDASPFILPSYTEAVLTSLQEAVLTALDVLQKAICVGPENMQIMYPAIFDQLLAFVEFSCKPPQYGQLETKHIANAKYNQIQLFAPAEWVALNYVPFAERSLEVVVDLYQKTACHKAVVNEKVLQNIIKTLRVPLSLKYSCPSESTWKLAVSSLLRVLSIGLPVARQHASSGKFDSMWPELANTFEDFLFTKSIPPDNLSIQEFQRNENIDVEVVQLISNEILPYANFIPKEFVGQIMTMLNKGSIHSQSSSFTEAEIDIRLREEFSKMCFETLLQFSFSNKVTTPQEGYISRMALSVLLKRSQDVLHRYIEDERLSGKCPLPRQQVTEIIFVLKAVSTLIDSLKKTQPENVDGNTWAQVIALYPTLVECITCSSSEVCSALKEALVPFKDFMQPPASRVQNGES

Assays:
WT ARL10–GFP (human) = biological target: T1, WT ARL10–GFP (human) (UniProt Q8N8L6); experiment: affinity purification with mass spectrometry; ARL10–GFP (WT or active mutant) from Flp-In HeLa cells lysed in 0.5% digitonin buffer, GFP-selector resin 2 h at 4°C, on-bead digestion, MS
T1 sequence: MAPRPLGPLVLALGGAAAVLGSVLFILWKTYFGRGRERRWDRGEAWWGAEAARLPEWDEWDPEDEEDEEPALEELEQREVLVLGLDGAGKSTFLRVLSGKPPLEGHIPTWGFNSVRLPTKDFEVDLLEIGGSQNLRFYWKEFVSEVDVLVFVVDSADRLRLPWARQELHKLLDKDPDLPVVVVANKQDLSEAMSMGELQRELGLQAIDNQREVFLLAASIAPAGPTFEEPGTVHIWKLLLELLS

[1] = biological target: T2, constitutively active ARL10 (S132L)–BirA*–Flag (human) (UniProt Q8N8L6); experiment: proximity labelling; BioID: constitutively active ARF/ARL bait with C-terminal BirA*–Flag, tetracycline-induced in Flp-In T-REx HEK293 and Flp-In T-REx HeLa cells, 50 µM biotin, 24 h labelling; RIPA lysis, streptavidin beads, on-bead trypsin, MS; SAINT AvgP ≥0.95 with AvgSpec and CAAX-ratio filters
T2 sequence: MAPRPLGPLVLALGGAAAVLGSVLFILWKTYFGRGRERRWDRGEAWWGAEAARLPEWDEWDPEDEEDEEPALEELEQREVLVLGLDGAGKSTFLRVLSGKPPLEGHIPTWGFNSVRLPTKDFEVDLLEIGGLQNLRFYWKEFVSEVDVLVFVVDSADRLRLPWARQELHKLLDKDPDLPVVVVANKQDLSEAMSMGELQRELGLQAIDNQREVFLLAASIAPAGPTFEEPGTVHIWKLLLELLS

[2] = biological target: constitutively active ARF1 (Q71L)–BirA*–Flag (human) (UniProt P84077); experiment: as above
[3] = biological target: constitutively active ARL13A–BirA*–Flag (human) (UniProt Q5H913); experiment: as above
[4] = biological target: constitutively active ARL8B–BirA*–Flag (human) (UniProt Q9NVJ2); experiment: as above

binding (WT ARL10–GFP (human)): no binding
Molecule: DEPTOR (from UniProt Q8TB45 1-409)

binding [1]: binds
Molecule: MON2 (from UniProt Q7Z3U7 1-1717)

binding [2]: binds
binding [3]: binds
binding [4]: binds
B1: AGFG1 (protein, UniProt P52594 1-562)
chain: MAASAKRKQEEKHLKMLRDMTGLPHNRKCFDCDQRGPTYVNMTVGSFVCTSCSGSLRGLNPPHRVKSISMTTFTQQEIEFLQKHGNEVCKQIWLGLFDDRSSAIPDFRDPQKVKEFLQEKYEKKRWYVPPEQAKVVASVHASISGSSASSTSSTPEVKPLKSLLGDSAPTLHLNKGTPSQSPVVGRSQGQQQEKKQFDLLSDLGSDIFAAPAPQSTATANFANFAHFNSHAAQNSANADFANFDAFGQSSGSSNFGGFPTASHSPFQPQTTGGSAASVNANFAHFDNFPKSSSADFGTFNTSQSHQTASAVSKVSTNKAGLQTADKYAALANLDNIFSAGQGGDQGSGFGTTGKAPVGSVVSVPSQSSASSDKYAALAELDSVFSSAATSSNAYTSTSNASSNVFGTVPVVASAQTQPASSSVPAPFGATPSTNPFVAAAGPSVASSTNPFQTNARGATAATFGTASMSMPTGFGTPAPYSLPTSFSGSFQQPAFPAQAAFPQQTAFSQQPNGAGFAAFGQTKPVVTPFGQVAAAGVSSNPFMTGAPTGQFPTGSSSTNPFL
